Data source: PubChem BioAssay AID1259273 (Sanger Institute, 2017)
The whole screen tested 160 reagents; shown is a random part of them. In the full data, 36 (22%) were called active. 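Four distinct siRNA duplexes per gene; each call applies to one duplex and is not gene-level validation across cell lines.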 Reagents against one gene are numbered here. Not all columns of the deposit are shown. The record does not give: the amount of reagent, the time to read-out.

- Aim: 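Kinases whose loss is synthetic lethal with BYL719, cetuximab or trametinib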 (follow-up of hits)
- Cells: human NCI-H630 colorectal cancer cells
- Reagent: single siRNA against human genes
- Challenge: anchor drugs BYL719 at 1 µM, cetuximab at 5 µg/ml or trametinib at 10 nM, or DMSO vehicle alone
- Detection: 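Viability relative to wells given a non-targeting control pool; synergy score for each anchor drug, weighing combined effect against siRNA only and drug only; replicate means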
- Direction: synergy score with trametinib and synergy score with BYL719 and synergy score with cetuximab: higher = stronger synergy, more synthetic lethal
- Rule for the call: 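a duplex counts as synthetic lethal if its averaged synergy score exceeds 0.10 with BYL719, cetuximab or trametinib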

PIM1 #1 showed synergy score with trametinib -0.0273; synergy score with BYL719 = -0.00646; synergy score with cetuximab 0.0129; inactive.
With knock-down of PIM1 #2, the screen gave synergy score with trametinib 0.0619; synergy score with BYL719 = -0.087; synergy score with cetuximab -0.0536; inactive.
Against PIM1 #3, the values are synergy score with trametinib -0.103; synergy score with BYL719 = -0.0795; synergy score with cetuximab -0.157; inactive.
Against PIM1 #4, the entry reads synergy score with trametinib -0.103; synergy score with BYL719 = -0.146; synergy score with cetuximab -0.021; inactive.
For BMPR2 #1 the deposit lists synergy score with trametinib -0.103; synergy score with BYL719 = -0.146; synergy score with cetuximab -0.23; inactive.
Against BMPR2 #2, the values are synergy score with trametinib -0.103; synergy score with BYL719 = -0.135; synergy score with cetuximab 0.0568; inactive.
With knock-down of BMPR2 #3, the record shows synergy score with trametinib -0.103; synergy score with BYL719 = -0.146; synergy score with cetuximab -0.199; inactive.
For BMPR2 #4 the deposit lists synergy score with trametinib -0.105; synergy score with BYL719 = -0.147; synergy score with cetuximab -0.0746; inactive.

A portion taken from the entries so far, as a working copy:
PIM1 #4 | synergy score with trametinib = -0.103; synergy score with BYL719 = -0.146; synergy score with cetuximab = -0.021; Call = inactive
BMPR2 #1 | synergy score with trametinib = -0.103; synergy score with BYL719 = -0.146; synergy score with cetuximab = -0.23; Call = inactive

Next results:
Silencing of CDK6 #1 came out at: synergy score with trametinib 0.189; synergy score with BYL719 = -0.137; synergy score with cetuximab -0.0261; active.
With knock-down of CDK6 #2, the record shows synergy score with trametinib 0.197; synergy score with BYL719 = -0.111; synergy score with cetuximab 0.00382; active.
CDK6 #3 showed synergy score with trametinib 0.0782; synergy score with BYL719 = -0.0601; synergy score with cetuximab -0.0791; inactive.
CDK6 #4 scored synergy score with trametinib 0.12; synergy score with BYL719 = 0.0471; synergy score with cetuximab 0.015; active.
After knock-down of SYK #1 the results were synergy score with trametinib 0.252; synergy score with BYL719 = 0.161; synergy score with cetuximab 0.134; active.
With knock-down of SYK #2 the results were synergy score with trametinib 0.0865; synergy score with BYL719 = -0.146; synergy score with cetuximab 0.0117; inactive.
SYK #3 gave synergy score with trametinib 0.158; synergy score with BYL719 = -0.0206; synergy score with cetuximab -0.0531; active.
Against SYK #4 the deposit lists synergy score with trametinib -0.103; synergy score with BYL719 = -0.144; synergy score with cetuximab -0.23; inactive.
Depletion of IKBKB #1 came out at: synergy score with trametinib -0.0589; synergy score with BYL719 = -0.124; synergy score with cetuximab 0.0683; inactive.
With knock-down of IKBKB #2, the record shows synergy score with trametinib -0.0113; synergy score with BYL719 = -0.044; synergy score with cetuximab -0.075; inactive.
Against IKBKB #3, the values are synergy score with trametinib 0.104; synergy score with BYL719 = -0.14; synergy score with cetuximab -0.0646; active.
Knock-down of IKBKB #4 resulted in: synergy score with trametinib -0.0538; synergy score with BYL719 = -0.158; synergy score with cetuximab -0.0857; inactive.
